{"source": "patent EP0315197B1", "about": "(GÖDECKE AKTIENGESELLSCHAFT, priority 1987, dated 1989)", "key": {"Hypertonie [1]": {"tested_on": "Hypertonie", "settings": "mean (SD)"}, "Hypertonie [2]": {"tested_on": "Hypertonie", "settings": "mean (SD)", "remark": "listed apart in the source"}}, "note": "Structures can show the parent of a compound that is named as a salt. Where two headings read alike, the source gives them in different places.", "data": [{"smiles": "COc1ccc([C@@H]2Sc3ccccc3N(CCN(C)C)C(=O)[C@@H]2OC(C)=O)cc1", "note": "[Diltiazem, Diltiazemhydrochlorid]", "values": [{"measurement": "Körpergewicht (kg)", "setting": "Hypertonie [1]; 1 × 180 mg (n = 30), Basislinie (end of placebo phase)", "result": "80.3 (13.6) kg"}, {"measurement": "Körpergewicht (kg)", "setting": "Hypertonie [1]; 1 × 180 mg (n = 30), Endpunkt (8 weeks)", "result": "79.9 (13.5) kg"}, {"measurement": "Körpergewicht (kg)", "setting": "Hypertonie [1]; 2 × 90 mg (n = 30), Basislinie (end of placebo phase)", "result": "79.2 (12.9) kg"}, {"measurement": "Körpergewicht (kg)", "setting": "Hypertonie [1]; 2 × 90 mg (n = 30), Endpunkt (8 weeks)", "result": "79.0 (12.9) kg"}, {"measurement": "Körpergewicht (kg)", "setting": "Hypertonie [2]; 1 × 180 mg (n = 40), Basislinie (end of placebo phase)", "result": "82.5 (13.8) kg"}, {"measurement": "Körpergewicht (kg)", "setting": "Hypertonie [2]; 1 × 180 mg (n = 40), Endpunkt (3 weeks)", "result": "79.7 (12.6) kg"}, {"measurement": "Körpergewicht (kg)", "setting": "Hypertonie [2]; 2 × 90 mg (n = 42), Basislinie (end of placebo phase)", "result": "83.7 (15.7) kg"}, {"measurement": "Körpergewicht (kg)", "setting": "Hypertonie [2]; 2 × 90 mg (n = 42), Endpunkt (3 weeks)", "result": "80.9 (14.2) kg"}]}]}
